Laboratory results reported in PubChem BioAssay AID1487 (National Center for Advancing Translational Sciences (NCATS), 2009).
Some of the results follow. The main result of the screen is listed elsewhere. These columns were measured beside it and carry no call. Compounds called inactive in the main read-out are mostly missing here. The note in brackets gives the kind of curve behind each potency; many fits are weak.

Assay: qHTS Assay for Modulators of Lamin A Splicing
Conditions: HeLa LMNA splicing GFP/RFP minigene ratio, 48 h
Summary of the method: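 S3 HeLa cells stably expressing lamin A-EGFP splicing minigene plus DsRed2, 600 cells/well, 48 h compound exposure at 37C. Laser-scanning cytometry; analysed as GFP (500-530 nm)/RFP (575-640 nm) total intensity ratio; 0.5% DMSO vehicle.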

[1] = measured here: GFP splicing reporter channel
[2] = measured here: RFP viability control channel

Row | Compound | AC50 [1] | AC50 [2]
1 | COc1ccc(/C=C(/C(=O)c2ccc(Cl)cc2Cl)n2cncn2)cc1 | 35.5 µM [rising, single point] | –
2 | CCOC(=O)c1[nH]c(C)c(C(=O)Nc2ccccc2F)c1C | – | 5.62 µM [rising, full curve]
3 | CC1CCCC(NC(=O)COC(=O)Cc2ccc(Br)cc2)C1C (centres undefined) | – | 35.5 µM [rising, single point]
4 | CCOC(=O)N1CCC(n2c(SCC(=O)N3CCC(C)CC3)nc3ccccc3c2=O)CC1 | 3.55 µM [rising, partial curve] | –
5 | CCOC(=O)c1cc(-c2ccccc2)n(CC(=O)NC(C)c2ccccc2)c1C (centres undefined) | – | 28.2 µM [falling, single point]
6 | Cc1ccc(NC(=O)COC(=O)C2CC2C)c(S(=O)(=O)N2CCCCC2)c1 (centres undefined) | – | 0.00891 µM [rising, full curve, poor fit]
7 | CN1CCN(NC(=O)c2cn(-c3ccccc3)nc2-c2cccc(Br)c2)CC1 | 2.24 µM [falling, full curve, poor fit] | –
8 | O=C(/C=C/c1ccc(F)cc1)N1CC[C@@]2(O)CCCC[C@H]2C1 | 0.447 µM [rising, full curve, poor fit] | –
9 | CS(=O)(=O)c1ncc(Cl)c(C(=O)Nc2ccc(N3CCOCC3)cc2)n1 | 31.6 µM [falling, single point] | 11.2 µM [rising, partial curve]
10 | O=C1N=c2ccccc2=C1c1[nH]c(=S)[nH]c1O | – | 0.02 µM [rising, full curve, poor fit]
11 | CN1CCN(c2ccc(C(=O)c3ccc(F)cc3)cc2)CC1 | – | 0.0794 µM [rising, full curve, poor fit]
12 | COc1ccc(NS(=O)(=O)c2cc(OC)ccc2NC(=O)c2cc(C)oc2C)cc1 | – | 22.4 µM [rising, single point]
13 | O=C(COC(=O)c1c2c(nc3ccccc13)CCCC2)c1cccs1 | 11.2 µM [falling, partial curve, poor fit] | 20 µM [falling, single point]
14 | COc1ccc(S(=O)(=O)N(Cc2ccccc2)Cc2nc3ccccc3c(=O)[nH]2)cc1 | – | 11.2 µM [rising, partial curve, poor fit]
15 | CCOc1cc(/C=C/C(=O)c2ccc(C)cc2)ccc1OCC(=O)N(C)C | – | 0.0447 µM [rising, full curve, poor fit]
16 | COc1ccccc1CNC(=O)COC(=O)[C@H](Cc1c[nH]c2ccccc12)NC(=O)c1cccs1 | 0.0178 µM [falling, full curve, poor fit] | –
17 | CCOc1ccc(N2C(=O)CC(Sc3n[nH]c(-c4ccccc4)n3)C2=O)cc1 (centres undefined) | 22.4 µM [falling, partial curve, poor fit] | 11.2 µM [falling, partial curve]
18 | COCc1nnc(NC(=O)c2cccc(NC(=O)C(C)C)c2)s1 | 0.631 µM [rising, full curve, poor fit] | –
19 | COc1ccc(S(=O)(=O)Cc2ccc(C(=O)N3CCN(c4cccc(C)c4)C(C)C3)o2)cc1 (centres undefined) | 10 µM [falling, single point] | –

Fetched one by one from above, 3 records:
Row | Compound | AC50 [1] | AC50 [2]
17 | CCOc1ccc(N2C(=O)CC(Sc3n[nH]c(-c4ccccc4)n3)C2=O)cc1 (centres undefined) | 22.4 µM [falling, partial curve, poor fit] | 11.2 µM [falling, partial curve]
19 | COc1ccc(S(=O)(=O)Cc2ccc(C(=O)N3CCN(c4cccc(C)c4)C(C)C3)o2)cc1 (centres undefined) | 10 µM [falling, single point] | –
11 | CN1CCN(c2ccc(C(=O)c3ccc(F)cc3)cc2)CC1 | – | 0.0794 µM [rising, full curve, poor fit]

The listing continues.

Row | Compound | AC50 [1] | AC50 [2]
20 | CCc1n[nH]c(=S)n1/N=C/c1ccc(NC(C)=O)cc1 | 31.6 µM [rising, single point] | 14.1 µM [rising, single point]
21 | CN(C)CCCN(C(=O)c1ccc(Br)s1)c1nc2cc3c(cc2s1)OCO3 | 39.8 µM [falling, partial curve, poor fit] | –
22 | Cc1c(/C=N/NC(=O)CNc2ccccc2)c2ccccn2c1C(=O)c1ccncc1 | – | 17.8 µM [rising, partial curve, poor fit]
23 | CCn1ccnc1CN(C)Cc1cn(-c2ccc(C)cc2)nc1-c1ccc(F)cc1 | 11.2 µM [falling, partial curve] | 12.6 µM [falling, partial curve]
24 | O=C(NC1=NCCS1)C12CC3CC(CC(C3)C1)C2 | – | 17.8 µM [rising, partial curve, poor fit]
25 | CCOc1ccc(-n2c(O)c(/C=N/Nc3nnc(C)c(=O)[nH]3)c3ccccc3c2=O)cc1 | – | 22.4 µM [rising, partial curve, poor fit]
26 | Cc1ccc(-c2noc(CSc3nnc(Cc4ccccc4)n3-c3cccc(C)c3)n2)cc1 | – | 15.8 µM [rising, single point]
27 | Cc1ccccc1OCC(O)CN1CCC(C)CC1 (centres undefined) | – | 0.0447 µM [falling, full curve, poor fit]
28 | CC(C)CC(=O)c1c[nH]c(C(=O)N2CCN(Cc3ccccc3)CC2)c1 | 0.126 µM [rising, full curve] | –
29 | CCOC(=O)Cc1c(C)c2ccc(N(CC)CC)cc2oc1=O | 14.1 µM [rising, single point] | 14.1 µM [rising, partial curve]
30 | CC(=O)c1ccc(N/N=C(/C(N)=O)C2=NC(C)(C)Cc3ccccc32)cc1 | – | 7.08 µM [rising, partial curve]
31 | COc1cc(NC(=O)c2cc(-c3cccnc3)nc3ccc(C)cc23)c(OC)cc1Cl | – | 5.62 µM [rising, single point]
32 | CC(=O)c1ccc2noc(-c3ccccc3)c2c1 | 0.02 µM [rising, full curve, poor fit] | –
33 | COc1ccc2c(c1)N(C[C@@H](C)CN(C)C)c1ccccc1S2 | 12.6 µM [falling, single point] | 14.1 µM [falling, single point]
34 | CN=C1S/C(=C\c2cc(C)n(-c3ccccc3F)c2C)C(=O)N1C | 14.1 µM [rising, single point] | 11.2 µM [rising, partial curve]
35 | CC(SCc1ccccc1)C(=O)N/N=C/c1cc2c(cc1Br)OCO2 (centres undefined) | 20 µM [rising, single point] | 20 µM [rising, single point]
36 | O=S(=O)(c1ccc2c(c1)OCCO2)N(Cc1ccc(F)cc1)Cc1nnc(-c2cccs2)o1 | 11.2 µM [rising, partial curve] | 12.6 µM [rising, single point]
37 | O=c1oc2ccccc2c(O)c1CN1CCCCC1 | 11.2 µM [rising, partial curve] | 14.1 µM [rising, partial curve]
38 | c1ccc(-c2noc(CN3CCOCC3)n2)cc1 | 0.01 µM [rising, full curve, poor fit] | –

Row | Compound | AC50 [1] | AC50 [2]
39 | O=C(Nc1cccc(F)c1)C1CCN(c2nnnn2-c2ccccc2)CC1 | 35.5 µM [rising, single point] | 22.4 µM [rising, single point]
40 | Cc1cccc(OCC(=O)N/N=C\c2cn(C)c3ccccc23)c1 | 12.6 µM [falling, partial curve] | 11.2 µM [falling, partial curve]
41 | CC(=O)N1CCCc2cc(S(=O)(=O)N3CCC(C(=O)NCc4cccc(C)c4)CC3)ccc21 | 7.08 µM [falling, partial curve] | –
42 | O=C(N/N=C/c1ccc([N+](=O)[O-])cc1)c1ccc2nc[nH]c2c1 | 0.0631 µM [falling, full curve, poor fit] | 0.158 µM [falling, full curve, poor fit]
43 | Cc1c(Cl)cccc1N/C(=N/S(=O)(=O)c1cccs1)c1ccccc1 | 0.355 µM [falling, full curve, poor fit] | 7.94 µM [falling, partial curve]
44 | Cc1ccc(C(C(=O)NCc2ccco2)N(C(=O)Cc2cccs2)c2cccnc2)cc1 (centres undefined) | 0.01 µM [rising, full curve, poor fit] | –
45 | CCCCn1c2ccc(F)cc2c2nnc(NN)nc21 | – | 25.1 µM [rising, single point]
46 | O=C(NN1C(=O)c2ccccc2NC1c1ccccn1)c1ccccc1 (centres undefined) | 0.112 µM [falling, full curve, poor fit] | –
47 | CNc1c([N+](=O)[O-])cnn1-c1ccc(F)cc1 | – | 5.01 µM [falling, single point]
48 | COCCn1c(N)c(N(Cc2ccccc2)C(=O)Cc2ccccc2F)c(=O)[nH]c1=O | 0.0224 µM [rising, full curve, poor fit] | –
49 | CC(C)C(=O)Nc1nc2cc3c(cc2s1)OCO3 | – | 14.1 µM [rising, partial curve]
50 | Cc1ccc2c(CC(=O)Nc3ccc(N4CCN(C)CC4)cc3C)coc2c1 | 1.12 µM [rising, single point] | 11.2 µM [rising, single point]
51 | N#Cc1ccc(C(c2ccc(C#N)cc2)n2cncn2)cc1 | 0.00251 µM [falling, full curve, poor fit] | –
52 | O=c1c(-c2cc(F)cc(F)c2)nc2cncnc2n1Cc1ccccc1Cl | 10 µM [falling, partial curve] | –
53 | CSCCC(NC(=O)c1ccc(Br)cc1)C(=O)O (centres undefined) | 6.31 µM [falling, partial curve, poor fit] | –
54 | COc1cc(NS(=O)(=O)c2ccc3[nH]c4c(c3c2)CCCCCC4)cc(OC)c1 | 22.4 µM [falling, partial curve] | 22.4 µM [falling, partial curve]
55 | CC1=C(C#N)C(c2cn(-c3ccccc3)nc2-c2cccs2)C(C#N)=C(C)N1 | – | 14.1 µM [rising, single point]
56 | CSc1nncc(-c2ccccc2)n1 | 0.0178 µM [falling, full curve, poor fit] | –
57 | O=C(OCC(=O)c1ccc[nH]1)c1ccccc1 | 0.00355 µM [falling, full curve, poor fit] | –
